Reference: PubChem BioAssay AID1053208 (Peter MacCallum Cancer Centre, 2014)

- Screen: 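Genes whose silencing cuts survival of bone tumour cells only with doxorubicin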 (primary screen)
- System: mouse osteosarcoma cells, early-passage culture from an engineered mouse model of fibroblastic bone tumour
- Reagent: siRNA pool against mouse genes, 40 nM
- Duration: about 120 h (48 h before drug, then 72 h with drug)
- Treatment: doxorubicin 100 nM for 72 h, roughly 30-40% inhibitory dose
- Read-out: 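Viability read as ATP luminescence after 72 h of 100 nM doxorubicin or none, duplicate wells averaged, scaled to non-targeting siRNA, then expressed as robust z-scores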
- Scale: viability z-score with doxorubicin and doxorubicin viability vs non-targeting: higher = more viable cells under doxorubicin; viability z-score without drug: higher = more viable cells with knock-down alone; z-score of drug to no-drug ratio: higher = less drug sensitisation by knock-down
- Rule for the call: 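Called active if knock-down leaves viability unchanged without drug (z within -2 to 2) but lowers it with doxorubicin (z at or under -2)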
Here is one part, drawn at random, of about 17,000 deposited reagents. 788 of all reagents (4.7%) count as active. 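Calls rest on z-score classes alone; an extra cut-off of viability at most 70% of control was not applied to them.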 Unmarked entries are inactive. Reagents against one gene are numbered here.

no.	Gene	reagent	combined z-score class	viability z-score with doxorubicin	viability z-score without drug	z-score of drug to no-drug ratio	doxorubicin viability vs non-targeting
1	Or2t45 (olfactory receptor family 2 subfamily T member 45)	1	no change with or without drug	-1.35	0.17	-1.46	0.82
2	Dcn (decorin)	1	high cell count with and without drug	2.25	2.19	0.9	1.14
3	Bbln (bublin coiled coil protein)	1	no change with or without drug	1.12	0.34	1.01	1.04
4	Kif2b (kinesin family member 2B)	1	no change with or without drug	-0.67	-0.84	0	0.88
5	Emc4 (ER membrane protein complex subunit 4)	1	no change with or without drug	0.22	0.51	0	0.96
6	Wipf1 (WAS/WASL interacting protein family, member 1)	1	low cell count with doxorubicin only (active)	-2.14	-0.51	-1.8	0.75
7	Triobp (TRIO and F-actin binding protein)	1	no change with or without drug	1.24	-0.17	1.57	1.05
8	Pag1	1	no change with or without drug	0.45	0.51	0.22	0.98
9	Kdr (kinase insert domain protein receptor)	1	no change with or without drug	0.56	1.35	-0.22	0.99
10	Ppp2cb	1	no change with or without drug	1.01	0.51	0.79	1.03
11	Gpr37l1 (G protein-coupled receptor 37-like 1)	1	no change with or without drug	0.22	1.85	-0.79	0.96
12	Col11a2 (collagen, type XI, alpha 2)	1	no change with or without drug	-1.01	-0.84	-0.45	0.85
13	Clca3b (chloride channel accessory 3B)	1	no change with or without drug	-1.8	-0.51	-1.46	0.78
14	Or14j9 (olfactory receptor family 14 subfamily J member 9)	1	low cell count without drug only	-1.12	-2.19	0.45	0.84
15	Slc22a21	1	no change with or without drug	0.67	-0.34	1.12	1
16	Pibf1 (progesterone immunomodulatory binding factor 1)	1	no change with or without drug	1.8	1.18	1.12	1.1
17	B230340J04Rik (RIKEN cDNA B230340J04 gene)	1	no change with or without drug	0.22	0.17	0.22	0.96
18	Gykl1 (glycerol kinase-like 1)	1	no change with or without drug	0.9	1.18	0.22	1.02
19	Nphp4 (nephronophthisis 4 (juvenile) homolog (human))	1	no change with or without drug	0.45	0	0.56	0.98
20	Csn3 (casein kappa)	1	no change with or without drug	1.57	1.18	0.9	1.08
21	B3galt1	1	no change with or without drug	-0.79	-1.01	0	0.87

Continued, starting with the last 5 of the part before.
no.	Gene	reagent	combined z-score class	viability z-score with doxorubicin	viability z-score without drug	z-score of drug to no-drug ratio	doxorubicin viability vs non-targeting
17	B230340J04Rik (RIKEN cDNA B230340J04 gene)	1	no change with or without drug	0.22	0.17	0.22	0.96
18	Gykl1 (glycerol kinase-like 1)	1	no change with or without drug	0.9	1.18	0.22	1.02
19	Nphp4 (nephronophthisis 4 (juvenile) homolog (human))	1	no change with or without drug	0.45	0	0.56	0.98
20	Csn3 (casein kappa)	1	no change with or without drug	1.57	1.18	0.9	1.08
21	B3galt1	1	no change with or without drug	-0.79	-1.01	0	0.87
22	Klhl9 (kelch-like 9)	1	no change with or without drug	0	-0.51	0.45	0.94
23	Myo1d (myosin ID)	1	no change with or without drug	1.35	1.85	0.22	1.06
24	Cth (cystathionine gamma lyase)	1	no change with or without drug	0.56	-0.17	0.79	0.99
25	Neil1 (nei endonuclease VIII-like 1 (E. coli))	1	no change with or without drug	1.57	0.51	1.35	1.08
26	Hmgcr (3-hydroxy-3-methylglutaryl-Coenzyme A reductase)	1	no change with or without drug	0.34	-0.34	0.67	0.97
27	Mmut (methylmalonyl-Coenzyme A mutase)	1	high cell count without drug only	1.91	2.36	0.45	1.11
28	Tfip11 (tuftelin interacting protein 11)	1	no change with or without drug	0.56	-0.34	0.9	0.99
29	Bhmt (betaine-homocysteine methyltransferase)	1	high cell count without drug only	0.34	2.19	-0.9	0.97
30	Esrp1 (epithelial splicing regulatory protein 1)	1	high without drug; low with doxorubicin	-2.7	3.54	-4.27	0.7
31	Fn3k (fructosamine 3 kinase)	1	no change with or without drug	0.11	-0.84	0.9	0.95
32	Pawr (pro-apoptotic WT1 regulator)	1	no change with or without drug	-0.67	1.18	-1.35	0.88
33	Trappc13 (trafficking protein particle complex 13)	1	no change with or without drug	1.8	0.84	1.35	1.1
34	Tti1 (TELO2 interacting protein 1)	1	high cell count with doxorubicin only	2.02	0.84	1.57	1.12
35	Ing5 (inhibitor of growth family, member 5)	1	no change with or without drug	0.67	0.84	0.22	1
36	Ifitm7 (interferon induced transmembrane protein 7)	1	no change with or without drug	-0.9	0.84	-1.35	0.86
37	Pex1 (peroxisomal biogenesis factor 1)	1	no change with or without drug	0.45	0.17	0.45	0.98
38	Ranbp1 (RAN binding protein 1)	1	no change with or without drug	0.45	0.34	0.34	0.98
39	Pgrmc1 (progesterone receptor membrane component 1)	1	no change with or without drug	-0.22	-1.18	0.79	0.92
40	Fam98c (family with sequence similarity 98, member C)	1	no change with or without drug	-1.57	-0.17	-1.46	0.8
41	Sra1 (steroid receptor RNA activator 1)	1	no change with or without drug	1.35	0.34	1.24	1.06
42	Adgrf1 (adhesion G protein-coupled receptor F1)	1	no change with or without drug	-0.45	0.84	-0.9	0.9
43	Oas1g (2'-5' oligoadenylate synthetase 1G)	1	no change with or without drug	0.11	-0.34	0.45	0.95
44	Vkorc1 (vitamin K epoxide reductase complex, subunit 1)	1	low cell count with doxorubicin only (active)	-2.25	0.51	-2.47	0.74
45	Chrna1 (cholinergic receptor nicotinic alpha 1 subunit)	1	no change with or without drug	-0.22	-0.17	0	0.92
46	Tmtc2 (transmembrane and tetratricopeptide repeat containing 2)	1	no change with or without drug	0.22	1.18	-0.45	0.96
47	Tmtc2 (transmembrane and tetratricopeptide repeat containing 2)	2	no change with or without drug	-0.67	-0.17	-0.45	0.88
48	Dicer1 (dicer 1, ribonuclease type III)	1	no change with or without drug	0.9	0.51	0.67	1.02
49	4933414I15Rik (RIKEN cDNA 4933414I15 gene)	1	high cell count without drug only	1.91	3.04	0	1.11
50	Sox30 (SRY (sex determining region Y)-box 30)	1	no change with or without drug	-0.22	-1.69	1.12	0.92
